Measurements taken from article PMC6056416.
No constants are given. Whether binding was seen depends on the method and setting. In cells and extracts the contact can be indirect. Some results given as binding are weak or reduced against the parent protein; the word gives no strength.

By UniProt entry, the sequences of proteins in these tests, tags left out.
UniProt O95071: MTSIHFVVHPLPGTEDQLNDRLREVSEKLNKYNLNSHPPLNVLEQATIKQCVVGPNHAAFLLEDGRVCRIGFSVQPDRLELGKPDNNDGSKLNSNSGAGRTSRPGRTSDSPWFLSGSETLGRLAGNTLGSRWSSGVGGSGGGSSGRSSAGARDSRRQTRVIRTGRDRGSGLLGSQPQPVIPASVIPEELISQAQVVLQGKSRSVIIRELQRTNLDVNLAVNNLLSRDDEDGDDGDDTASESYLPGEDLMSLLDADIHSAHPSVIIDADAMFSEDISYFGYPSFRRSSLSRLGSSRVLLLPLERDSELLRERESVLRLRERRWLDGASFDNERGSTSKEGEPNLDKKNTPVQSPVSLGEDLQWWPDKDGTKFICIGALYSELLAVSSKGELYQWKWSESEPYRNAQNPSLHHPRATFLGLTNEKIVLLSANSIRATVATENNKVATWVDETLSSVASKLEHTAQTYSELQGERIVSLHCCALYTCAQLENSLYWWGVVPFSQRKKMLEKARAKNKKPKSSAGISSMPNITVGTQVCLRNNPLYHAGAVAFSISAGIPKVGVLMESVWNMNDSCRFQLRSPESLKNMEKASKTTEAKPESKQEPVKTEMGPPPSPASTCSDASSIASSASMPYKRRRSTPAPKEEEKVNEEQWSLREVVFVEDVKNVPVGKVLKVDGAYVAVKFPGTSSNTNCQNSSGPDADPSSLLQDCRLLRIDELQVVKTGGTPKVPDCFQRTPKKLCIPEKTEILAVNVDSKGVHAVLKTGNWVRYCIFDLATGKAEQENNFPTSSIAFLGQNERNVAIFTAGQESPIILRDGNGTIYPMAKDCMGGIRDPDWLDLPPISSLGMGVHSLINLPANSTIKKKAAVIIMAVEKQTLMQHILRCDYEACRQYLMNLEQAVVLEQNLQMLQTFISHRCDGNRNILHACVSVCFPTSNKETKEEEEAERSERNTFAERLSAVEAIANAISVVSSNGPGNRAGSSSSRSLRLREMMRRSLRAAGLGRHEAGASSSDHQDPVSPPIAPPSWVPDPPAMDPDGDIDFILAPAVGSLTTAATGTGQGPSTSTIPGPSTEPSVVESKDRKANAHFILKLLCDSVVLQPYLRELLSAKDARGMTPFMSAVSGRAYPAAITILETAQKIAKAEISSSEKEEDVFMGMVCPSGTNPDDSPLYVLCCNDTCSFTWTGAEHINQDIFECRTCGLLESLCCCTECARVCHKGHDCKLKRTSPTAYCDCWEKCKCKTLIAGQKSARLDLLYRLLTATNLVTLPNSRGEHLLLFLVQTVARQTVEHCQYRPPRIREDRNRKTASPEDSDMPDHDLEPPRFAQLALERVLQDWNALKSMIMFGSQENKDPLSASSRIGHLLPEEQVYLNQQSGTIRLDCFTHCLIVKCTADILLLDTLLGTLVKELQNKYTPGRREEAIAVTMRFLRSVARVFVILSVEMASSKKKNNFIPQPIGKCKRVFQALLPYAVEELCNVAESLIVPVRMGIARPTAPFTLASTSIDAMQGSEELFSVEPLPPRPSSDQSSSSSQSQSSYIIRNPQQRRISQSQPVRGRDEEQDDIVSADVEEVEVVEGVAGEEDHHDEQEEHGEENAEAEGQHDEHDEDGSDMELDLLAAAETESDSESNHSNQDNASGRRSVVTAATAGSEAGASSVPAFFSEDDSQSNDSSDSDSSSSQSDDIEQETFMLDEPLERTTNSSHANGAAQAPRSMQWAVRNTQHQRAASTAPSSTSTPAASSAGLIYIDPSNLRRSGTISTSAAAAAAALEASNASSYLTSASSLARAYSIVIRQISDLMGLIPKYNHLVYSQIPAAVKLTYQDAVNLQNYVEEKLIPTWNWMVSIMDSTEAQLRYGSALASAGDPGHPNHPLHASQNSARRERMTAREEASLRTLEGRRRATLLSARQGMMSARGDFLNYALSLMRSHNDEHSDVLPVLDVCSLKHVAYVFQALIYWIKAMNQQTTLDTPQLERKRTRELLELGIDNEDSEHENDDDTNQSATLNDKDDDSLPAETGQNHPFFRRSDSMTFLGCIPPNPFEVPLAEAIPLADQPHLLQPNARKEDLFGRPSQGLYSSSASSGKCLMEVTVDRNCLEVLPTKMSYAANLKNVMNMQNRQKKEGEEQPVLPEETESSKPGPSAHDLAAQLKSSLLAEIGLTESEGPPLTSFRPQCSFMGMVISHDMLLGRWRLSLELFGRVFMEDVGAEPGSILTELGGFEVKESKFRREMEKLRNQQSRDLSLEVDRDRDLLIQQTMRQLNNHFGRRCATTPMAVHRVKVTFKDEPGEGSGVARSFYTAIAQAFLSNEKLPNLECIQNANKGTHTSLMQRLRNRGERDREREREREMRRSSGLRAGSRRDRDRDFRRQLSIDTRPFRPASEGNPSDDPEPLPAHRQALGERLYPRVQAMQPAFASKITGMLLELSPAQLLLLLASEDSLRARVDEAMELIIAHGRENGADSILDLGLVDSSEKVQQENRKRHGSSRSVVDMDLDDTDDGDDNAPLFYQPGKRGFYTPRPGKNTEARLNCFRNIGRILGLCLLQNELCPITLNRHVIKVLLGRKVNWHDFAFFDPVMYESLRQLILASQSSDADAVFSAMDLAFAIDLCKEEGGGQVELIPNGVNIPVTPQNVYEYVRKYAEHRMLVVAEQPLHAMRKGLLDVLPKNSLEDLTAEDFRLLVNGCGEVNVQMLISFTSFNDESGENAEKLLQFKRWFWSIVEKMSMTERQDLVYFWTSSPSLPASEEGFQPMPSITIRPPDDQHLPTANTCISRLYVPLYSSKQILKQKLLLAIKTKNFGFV
UniProt P54252: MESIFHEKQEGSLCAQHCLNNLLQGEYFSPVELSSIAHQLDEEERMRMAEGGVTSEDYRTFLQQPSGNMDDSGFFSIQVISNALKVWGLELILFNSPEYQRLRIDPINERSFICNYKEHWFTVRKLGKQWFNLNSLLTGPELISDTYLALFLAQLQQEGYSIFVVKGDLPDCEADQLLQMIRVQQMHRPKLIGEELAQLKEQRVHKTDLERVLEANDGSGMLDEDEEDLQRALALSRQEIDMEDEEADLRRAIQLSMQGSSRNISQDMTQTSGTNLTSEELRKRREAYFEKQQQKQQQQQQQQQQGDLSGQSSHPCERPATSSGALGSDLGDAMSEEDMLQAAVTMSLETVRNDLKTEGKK
UniProt P42858: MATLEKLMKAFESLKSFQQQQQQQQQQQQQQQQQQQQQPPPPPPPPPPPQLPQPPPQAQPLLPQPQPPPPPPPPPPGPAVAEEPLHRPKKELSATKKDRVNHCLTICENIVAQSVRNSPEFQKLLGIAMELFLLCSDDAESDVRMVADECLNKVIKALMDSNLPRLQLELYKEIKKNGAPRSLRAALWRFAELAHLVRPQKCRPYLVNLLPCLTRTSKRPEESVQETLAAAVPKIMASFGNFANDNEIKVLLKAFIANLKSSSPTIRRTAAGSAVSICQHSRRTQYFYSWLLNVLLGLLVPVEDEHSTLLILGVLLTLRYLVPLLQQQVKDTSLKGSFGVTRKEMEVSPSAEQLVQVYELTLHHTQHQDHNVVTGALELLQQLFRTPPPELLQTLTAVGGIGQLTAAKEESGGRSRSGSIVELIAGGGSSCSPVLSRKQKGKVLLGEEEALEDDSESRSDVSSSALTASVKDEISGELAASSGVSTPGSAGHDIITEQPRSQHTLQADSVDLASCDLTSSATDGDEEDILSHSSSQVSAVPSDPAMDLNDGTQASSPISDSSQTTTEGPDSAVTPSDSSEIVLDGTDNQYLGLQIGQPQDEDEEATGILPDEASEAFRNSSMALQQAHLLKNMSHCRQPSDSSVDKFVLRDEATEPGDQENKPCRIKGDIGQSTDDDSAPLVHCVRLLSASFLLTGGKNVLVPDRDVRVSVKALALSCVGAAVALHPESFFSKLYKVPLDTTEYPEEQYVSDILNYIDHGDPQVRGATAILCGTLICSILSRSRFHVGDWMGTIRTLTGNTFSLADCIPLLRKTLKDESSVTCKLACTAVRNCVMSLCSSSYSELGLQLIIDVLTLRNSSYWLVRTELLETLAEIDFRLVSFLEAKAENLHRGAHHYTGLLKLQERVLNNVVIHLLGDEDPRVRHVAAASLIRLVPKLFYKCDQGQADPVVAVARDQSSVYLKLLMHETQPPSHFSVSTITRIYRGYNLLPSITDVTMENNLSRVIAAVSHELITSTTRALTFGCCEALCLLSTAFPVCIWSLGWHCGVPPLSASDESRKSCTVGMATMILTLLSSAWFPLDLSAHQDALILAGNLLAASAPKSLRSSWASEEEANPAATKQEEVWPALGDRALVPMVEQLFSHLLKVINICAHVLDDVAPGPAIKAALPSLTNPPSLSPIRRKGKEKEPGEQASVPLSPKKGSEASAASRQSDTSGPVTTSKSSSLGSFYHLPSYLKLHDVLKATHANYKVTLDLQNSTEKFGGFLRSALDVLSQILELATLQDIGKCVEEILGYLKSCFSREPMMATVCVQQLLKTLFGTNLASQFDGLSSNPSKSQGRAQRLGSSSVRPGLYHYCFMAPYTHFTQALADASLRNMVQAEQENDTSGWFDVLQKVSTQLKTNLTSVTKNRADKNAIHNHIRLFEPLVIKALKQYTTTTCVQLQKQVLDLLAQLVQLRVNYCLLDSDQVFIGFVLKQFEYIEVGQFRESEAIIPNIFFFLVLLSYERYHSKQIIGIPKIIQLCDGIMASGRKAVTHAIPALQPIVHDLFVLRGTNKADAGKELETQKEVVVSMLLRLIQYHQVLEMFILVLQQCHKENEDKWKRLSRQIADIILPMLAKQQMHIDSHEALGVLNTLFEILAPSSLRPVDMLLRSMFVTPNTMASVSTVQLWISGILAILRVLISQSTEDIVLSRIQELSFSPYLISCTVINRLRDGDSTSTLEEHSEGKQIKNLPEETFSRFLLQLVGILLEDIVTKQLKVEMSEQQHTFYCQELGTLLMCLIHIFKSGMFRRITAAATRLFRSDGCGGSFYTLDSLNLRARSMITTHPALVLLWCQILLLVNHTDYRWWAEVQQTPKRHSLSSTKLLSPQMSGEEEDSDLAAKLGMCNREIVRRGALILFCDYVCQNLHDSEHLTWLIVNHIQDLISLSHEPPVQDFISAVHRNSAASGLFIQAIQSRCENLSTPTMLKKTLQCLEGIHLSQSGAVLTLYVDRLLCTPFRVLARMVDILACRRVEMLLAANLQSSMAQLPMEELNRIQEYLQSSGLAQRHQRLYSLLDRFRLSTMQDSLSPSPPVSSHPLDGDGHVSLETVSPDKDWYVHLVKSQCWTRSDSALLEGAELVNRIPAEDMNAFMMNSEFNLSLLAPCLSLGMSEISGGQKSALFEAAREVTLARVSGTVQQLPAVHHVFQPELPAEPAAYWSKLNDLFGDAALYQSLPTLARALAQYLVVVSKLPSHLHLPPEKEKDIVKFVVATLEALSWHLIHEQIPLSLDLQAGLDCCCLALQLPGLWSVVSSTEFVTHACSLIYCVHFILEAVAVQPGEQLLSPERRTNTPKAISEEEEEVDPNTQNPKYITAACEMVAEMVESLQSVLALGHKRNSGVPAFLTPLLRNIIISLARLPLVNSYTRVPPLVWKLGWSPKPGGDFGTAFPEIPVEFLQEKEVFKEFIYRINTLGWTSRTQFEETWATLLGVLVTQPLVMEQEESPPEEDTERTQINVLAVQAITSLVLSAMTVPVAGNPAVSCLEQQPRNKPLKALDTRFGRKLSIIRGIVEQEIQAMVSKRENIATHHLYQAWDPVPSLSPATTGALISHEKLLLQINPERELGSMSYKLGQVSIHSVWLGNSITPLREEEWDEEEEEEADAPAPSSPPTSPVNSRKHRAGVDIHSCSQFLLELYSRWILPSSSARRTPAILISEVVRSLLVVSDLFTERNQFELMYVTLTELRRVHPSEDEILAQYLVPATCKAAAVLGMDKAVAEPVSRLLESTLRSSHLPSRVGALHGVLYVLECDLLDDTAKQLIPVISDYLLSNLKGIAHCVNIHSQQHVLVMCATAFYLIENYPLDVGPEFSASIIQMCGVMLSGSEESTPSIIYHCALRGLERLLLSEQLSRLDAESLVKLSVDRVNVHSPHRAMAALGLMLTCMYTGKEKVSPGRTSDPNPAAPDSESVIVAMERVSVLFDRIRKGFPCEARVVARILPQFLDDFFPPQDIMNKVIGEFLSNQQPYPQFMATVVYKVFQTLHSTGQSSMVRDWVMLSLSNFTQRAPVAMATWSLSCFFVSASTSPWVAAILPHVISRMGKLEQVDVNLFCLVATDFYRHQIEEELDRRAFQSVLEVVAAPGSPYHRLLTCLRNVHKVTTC

Columns and labels:
[1] = biological target: UBR5 (human (endogenous in iPSCs)) (UniProt O95071); assay: co-IP; MJD-iPSCs lysed in RIPA buffer; immunoprecipitation with UBR5 antibody and Protein A beads, western blot (Supplementary Fig. 22a)
[2] = biological target: UBR5 (human (endogenous in iPSCs)) (UniProt O95071); assay: co-IP; control and ALS-iPSC lines lysed in RIPA buffer; immunoprecipitation with UBR5 antibody and Protein A beads, western blot (Supplementary Fig. 22b, c)
[3] = biological target: UBE3A (human (endogenous in iPSCs)) (UniProt Q05086); assay: co-IP; HD Q71-iPSC line #1 lysed in RIPA buffer; immunoprecipitation with UBR5, UBE3A or FLAG (control) antibody and Protein A beads, western blot with HTT, polyQ-expanded HTT, UBR5 and UBE3A antibodies
[4] = biological target: UBR5 (human (endogenous in iPSCs)) (UniProt O95071); assay: as above

| Substance | binding [1] | binding [2] | binding [3] | binding [4] |
| --- | --- | --- | --- | --- |
| ataxin-3 (ATXN3), wild-type (from UniProt P54252 1-361) | no binding | – | – | – |
| FUS, wild-type (from UniProt P35637 1-526) | – | no binding | – | – |
| normal huntingtin (HTT) (from UniProt P42858 1-3142) | binds | binds | no binding | binds |
